Data set [1] can be described thus: Primary amines as switchable additives, THF/water. The following applies: 60° C., 60 minutes. The class given is physicochemical.
The nature of data set [2]: Comparative solvent switching with amidine, primary and secondary amine/water systems. The class given is physicochemical.
Data set [3] can be described thus: Settling of clay fines in switchable water. The following applies: kaolinite clay, 1 mM.
Setting [4] is: 3:3:1 (v/v/v) H2O, amine, THF, 90 minutes at 50° C.

This is an account of results in US11498853B2, “Water with switchable ionic strength” (QUEEN'S UNIVERSITY AT KINGSTON, priority 2010, dated 2022).

For `NCCN` [ethylenediamine], in data set [1] (18:18:1), the “recombination of phases on N2 bubbling” value was “the two phases did not recombine”. Regarding `NCCO` [ethanolamine], the “recombination of phases on N2 bubbling” value in data set [1] (5:5:1) is on record as “the two phases did not recombine”; in data set [2] (setting [4]) it was “did not recombine”. Take `C1CCC2=NCCCN2CC1` [DBU, 1,8-diazabicyclo-[5.4.0]-undec-7-ene]: the “recombination of phases on N2 bubbling” value in data set [2] is “failed to cause the phases to recombine”.

`CNCCO` [2-(methylamino) ethanol]: the “recombination of phases on N2 bubbling” value in data set [2] (setting [4]) is “did not recombine”. Consider `CN(C)CCCCN(C)C` [TMDAB, N, N, N′, N′-tetramethyl-1,4-diaminobutane], for which the clay suspension behaviour entry in data set [3] (no gas treatment) was “stable suspension”; in data set [3] (settled clay resuspended and treated with N2), “the suspension was stable”; in data set [3] (suspension treated with CO2 in presence of clay), “settling of the clay fines with a clean supernatant and a clear sediment line”.
